Results deposited as PubChem BioAssay AID1259254 (NCATS, 2017).

- Screen: 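Finding genes that stop cells copying their DNA twice in one cycle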 (primary screen)
- Cells: human HCT116 colorectal cancer cells
- Reagents: single siRNA against human genes
- Time to read-out: 3 days
- Detection: 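Nuclei stained with Hoechst and imaged; cell-cycle phase assigned by DNA content; G2 share scaled per plate, non-targeting siRNA 0%, GMNN siRNA 100%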
- Reading the numbers: G2 robust z-score and G2 cells, % of GMNN control: higher = more G2 cells, more excess DNA replication
- Hit rule: 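Active siRNAs have a G2 robust z of 5 or more median absolute deviations over the median, which in these data means about 38% or higher of GMNN control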
This is one part, drawn at random, of about 59,000 reagents. About 1,550 of them (2.6%) count as active. 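G2 share is only a proxy for re-replication; each gene was hit by three separate siRNAs, and active genes were retested.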 A number with no mark means an inactive call. Not all columns of the deposit are shown. The record does not give: the amount of reagent.

{"target": "SNCB", "PubChem SID": "SID160717097", "G2 robust z-score": -0.796, "G2 cells, % of GMNN control": -2.63}
{"target": "SNCB", "PubChem SID": "SID160717098", "G2 robust z-score": 0.0333, "G2 cells, % of GMNN control": 3.2}
{"target": "SNCB", "PubChem SID": "SID160717101", "G2 robust z-score": 1.46, "G2 cells, % of GMNN control": 13.2}
{"target": "TINAGL1", "PubChem SID": "SID160747504", "G2 robust z-score": -0.173, "G2 cells, % of GMNN control": 1.75}
{"target": "TINAGL1", "PubChem SID": "SID160747505", "G2 robust z-score": 1.16, "G2 cells, % of GMNN control": 11.1}
{"target": "TINAGL1", "PubChem SID": "SID160747506", "G2 robust z-score": 0.876, "G2 cells, % of GMNN control": 9.13}
{"target": "PELP1", "PubChem SID": "SID160738297", "G2 robust z-score": -0.994, "G2 cells, % of GMNN control": -4.02}
{"target": "PELP1", "PubChem SID": "SID160738298", "G2 robust z-score": -0.35, "G2 cells, % of GMNN control": 0.502}
{"target": "PELP1", "PubChem SID": "SID160738299", "G2 robust z-score": -0.63, "G2 cells, % of GMNN control": -1.47}
{"target": "NAALADL2", "PubChem SID": "SID160762228", "G2 robust z-score": 1.75, "G2 cells, % of GMNN control": 15.3}
{"target": "NAALADL2", "PubChem SID": "SID160762229", "G2 robust z-score": -0.823, "G2 cells, % of GMNN control": -2.82}
{"target": "NAALADL2", "PubChem SID": "SID160762230", "G2 robust z-score": -0.0169, "G2 cells, % of GMNN control": 2.85}
{"target": "KIF22", "PubChem SID": "SID160776339", "G2 robust z-score": 3.13, "G2 cells, % of GMNN control": 25}
{"target": "KIF22", "PubChem SID": "SID160776340", "G2 robust z-score": -1.1, "G2 cells, % of GMNN control": -4.76}
{"target": "KIF22", "PubChem SID": "SID160776341", "G2 robust z-score": 0.0562, "G2 cells, % of GMNN control": 3.36}
{"target": "CYRIA", "PubChem SID": "SID160750794", "G2 robust z-score": -0.816, "G2 cells, % of GMNN control": -2.78}
{"target": "CYRIA", "PubChem SID": "SID160750795", "G2 robust z-score": -0.448, "G2 cells, % of GMNN control": -0.185}
{"target": "CYRIA", "PubChem SID": "SID160750796", "G2 robust z-score": -0.0891, "G2 cells, % of GMNN control": 2.34}
{"target": "WNT9A", "PubChem SID": "SID160718865", "G2 robust z-score": -0.284, "G2 cells, % of GMNN control": 0.966}
{"target": "WNT9A", "PubChem SID": "SID160718867", "G2 robust z-score": 2.67, "G2 cells, % of GMNN control": 21.8}
{"target": "WNT9A", "PubChem SID": "SID160734905", "G2 robust z-score": -0.0023, "G2 cells, % of GMNN control": 2.95}
{"target": "MED13", "PubChem SID": "SID160723575", "G2 robust z-score": -0.448, "G2 cells, % of GMNN control": -0.184}
{"target": "MED13", "PubChem SID": "SID160723576", "G2 robust z-score": -0.628, "G2 cells, % of GMNN control": -1.45}
{"target": "MED13", "PubChem SID": "SID160723577", "G2 robust z-score": 0.303, "G2 cells, % of GMNN control": 5.1}

4 entries from above in another layout.
| target | PubChem SID | G2 robust z-score | G2 cells, % of GMNN control |
| --- | --- | --- | --- |
| SNCB | SID160717098 | 0.0333 | 3.2 |
| SNCB | SID160717101 | 1.46 | 13.2 |
| TINAGL1 | SID160747504 | -0.173 | 1.75 |
| TINAGL1 | SID160747505 | 1.16 | 11.1 |
